Reference: patent US20100021473A1 (DOMANTIS, published 2010)
No constants are given. Whether binding was seen depends on the method and setting. Some entries that bind do so weakly or less than the wild type.

Amino acid sequences for entries named in this document (tags omitted). A change or cut given only in a name is not applied to a line headed by its entry. Residues count along the entry.
UniProt P28907: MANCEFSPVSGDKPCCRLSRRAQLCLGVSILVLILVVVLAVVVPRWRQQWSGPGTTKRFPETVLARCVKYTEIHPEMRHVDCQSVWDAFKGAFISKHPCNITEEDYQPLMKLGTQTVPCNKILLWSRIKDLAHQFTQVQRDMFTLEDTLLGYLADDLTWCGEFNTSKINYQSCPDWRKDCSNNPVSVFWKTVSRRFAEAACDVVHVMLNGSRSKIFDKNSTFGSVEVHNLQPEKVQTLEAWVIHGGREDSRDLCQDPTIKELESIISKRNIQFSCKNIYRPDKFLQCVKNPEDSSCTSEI
UniProt P13591, residues 20-858: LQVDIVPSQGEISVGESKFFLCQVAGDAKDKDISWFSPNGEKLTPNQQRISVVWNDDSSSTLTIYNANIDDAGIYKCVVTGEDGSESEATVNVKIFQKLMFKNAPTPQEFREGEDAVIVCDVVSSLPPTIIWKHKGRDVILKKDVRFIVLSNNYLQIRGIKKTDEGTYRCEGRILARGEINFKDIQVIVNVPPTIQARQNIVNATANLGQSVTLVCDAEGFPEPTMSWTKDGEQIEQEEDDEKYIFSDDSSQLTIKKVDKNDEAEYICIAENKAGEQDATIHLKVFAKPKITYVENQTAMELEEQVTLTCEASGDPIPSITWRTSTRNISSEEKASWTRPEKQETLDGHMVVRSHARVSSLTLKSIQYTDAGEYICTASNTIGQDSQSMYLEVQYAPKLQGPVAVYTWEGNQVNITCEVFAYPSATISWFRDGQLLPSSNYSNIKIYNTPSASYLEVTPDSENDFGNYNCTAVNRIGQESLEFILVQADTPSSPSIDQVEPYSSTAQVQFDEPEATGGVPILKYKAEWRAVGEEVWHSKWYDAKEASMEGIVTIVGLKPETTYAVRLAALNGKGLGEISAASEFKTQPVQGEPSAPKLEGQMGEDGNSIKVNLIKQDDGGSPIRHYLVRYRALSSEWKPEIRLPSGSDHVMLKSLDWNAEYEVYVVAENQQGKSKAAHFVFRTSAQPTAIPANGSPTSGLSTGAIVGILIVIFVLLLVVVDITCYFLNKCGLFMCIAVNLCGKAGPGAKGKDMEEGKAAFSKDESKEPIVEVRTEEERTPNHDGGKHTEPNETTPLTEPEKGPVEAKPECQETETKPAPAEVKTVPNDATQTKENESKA

What was measured:
[1] = biological target: T1, CD38 immobilised on Biacore CM5 chip (UniProt P28907 43-300, limits assumed); assay: SPR (Biacore), CD38 immobilised on a CM5 chip; y axis % Response Difference, x axis Time (s)
T1 construct: also called DOM11

CD38 on cells [2] = biological target: T2, CD38 on cells (UniProt P28907 1-300); assay: FACS on RPMI cells (CD38+/138+)
T2 construct: whole, on cells; Endogenous CD38 on cell lines used in FACS or microscopy; also called DOM11; T10
Description: All dAbs were analysed by FACS on antigen positive and negative cell lines using the following method.
The determination of cell binding by FACS was carried out as follows: cells were centrifuged at 250 g for 5 minutes and the growth medium was removed. The cells were resuspended in FACS incubation buffer at 4° C. at a density of 2×10⁶ cells/ml. The cells were blocked by incubating for 15 minutes at 4° C. in FACS incubation buffer. Fifty microliters of 2× stock of primary antibody (anti-CD38 FITC, anti-CD138 FITC or mIgG1 FITC conjugated isotype control (all BD Biosciences) was added; or dAb was added to cells in FACS incubation buffer and incubated for 30-60 minutes at 4° C. The cells were then washed once in FACS incubation buffer. One hundred microliters of secondary antibody (rabbit anti-Vk) was added to cells in FACS incubation buffer and incubated 30-60 minutes at 4° C. The cells were washed once in FACS incubation buffer. Then 100 ul of 1× tertiary antibody was added to the cells in FACS incubation buffer and incubated for 30-60 mins at 4° C. (for dAbs the tertiary antibody is anti-rabbit FITC (Sigma)). The cells were washed twice in FACS incubation buffer. The cell pellet was resuspend in 200 ul FACS incubation buffer+viable cell marker (BD Viaprobe). The cells were then analyzed by flow cytometry.

CD38 on cells [3] = biological target: T2, CD38 on cells; assay: FACS on RPMI cells (CD38+/CD138+), dAb at 500 nM
CD38 on cells [4] = biological target: T2, CD38 on cells; assay: FACS
CD38 on cells [5] = biological target: T2, CD38 on cells; assay: FACS on RPMI cells
[6] = biological target: T1, CD38 immobilised on Biacore CM5 chip; assay: SPR, co-injection on immobilised CD38, 500 nM
[7] = biological target: T1, CD38 immobilised on Biacore CM5 chip; assay: SPR (Biacore) co-injection on immobilised CD38, dAbs at 500 nM
Description: Anti-CD38, anti-CEA and anti-CD56 dAbs that were identified as FACS positive clones were in addition analysed by Biacore using the following procedure. The CM5 chip surface was activated by flushing 1:1 EDC/NHS (0.4M1-ethyl-3-(3-dimenthylaminopropyl)-carbodiimide in water; 0.1 M N-hydroxysuccinimide in water) at a flow rate of 5 uL/min for 10 minute contact time. CD38 was immobilised at 500 nM in Acetate buffer pH4 at 5 uL/min this was repeated until the RUs reached between 500 and 1000 (low density). CEA and CD56 were coupled in acetate buffer pH 4.5. Any excess reactive groups were deactivated by running 1M ethanolamine-HCl over the CM5 chip (again 5 uL/min for 7 mins). The affinities of the anti-CD38, anti-CEA and anti-CD56 dAbs were measured on the biacore as described above.
Epitope mapping was performed to determine whether anti-CD38 dAbs bound to different epitopes on CD38. The assay was performed on BIAcore as described above using a chip coated at medium density (RUs of ˜2000). CD38 was coated on to a CM5 chip at medium density as described above. Using the co-inject function, the first anti-CD38 dAbs was injected at a concentration of 500 nM. Both the first and second anti-CD38 dabs were the co-injected at the same concentration (500 nM). As both dAbs bind different epitopes, the RUs during the second injection increase beyond the level of binding of the first dAb.

CD38 on cells [8] = biological target: T2, CD38 on cells; assay: FACS on SUPB cells (CD38+/CD138-)
[9] = biological target: T3, CD38 and CD138 co-expressed on cells (CD38+/CD138+ double positive cells) (UniProt P28907 1-300; P18827 23-310); assay: FACS, surface-bound (4°C) and acid-resistant (a/w) signal; cells OPM2 (CD38+/CD138+) by the legend paragraph 60 and paragraph 342, but the key of Fig 6B on the same sheet names Raji cells (CD38+)
T3 construct: whole, on cells; Two separate membrane proteins on the same cell, not a complex; also called RPMI8226; OPM2

[10] = biological target: T3, CD38 and CD138 co-expressed on cells …; assay: FACS on double positive cell lines, 25-50 nM
[11] = biological target: T3, CD38 and CD138 co-expressed on cells …; assay: FACS on OPM2 cells
[12] = biological target: T3, CD38 and CD138 co-expressed on cells …; assay: FACS on RPMI8226 cells, 50 nM
[13] = biological target: T3, CD38 and CD138 co-expressed on cells …; assay: FACS cell binding titration on OPM2 cells (CD38+/CD138+), arithmetic mean fluorescence against log conc in nm
[14] = biological target: T3, CD38 and CD138 co-expressed on cells …; assay: FACS on OPM2 cells (CD38+/CD138+), surface-bound (4°C) and acid-resistant (a/w) signal
[15] = biological target: T3, CD38 and CD138 co-expressed on cells …; assay: FACS on OPM2 cells (CD38+/CD138+), surface-bound (4°C) and acid-resistant signal
[16] = biological target: T3, CD38 and CD138 co-expressed on cells …; assay: FACS on OPM2 cells (CD38+/CD138+), ligand with 30K PEG, surface-bound (4°C) and acid-resistant (a/w) signal
[17] = biological target: T3, CD38 and CD138 co-expressed on cells …; assay: FACS on OPM2 cells (CD38+/CD138+), ligand with 40K PEG, surface-bound (4°C) and acid-resistant (a/w) signal
[18] = biological target: T3, CD38 and CD138 co-expressed on cells …; assay: FACS of pegylated samples (5K, 20K, 30K, 40K PEG)
[19] = biological target: T3, CD38 and CD138 co-expressed on cells …; assay: FACS on OPM2 cells (CD38+/CD138+), ligand with 20K PEG, surface-bound (4°C) and acid-resistant (a/w) signal
[20] = biological target: T3, CD38 and CD138 co-expressed on cells …; assay: FACS on OPM2 cells (CD38+/CD138+), ligand with 5K PEG, surface-bound (4°C) and acid-resistant (a/w) signal
CD56 on cells [21] = biological target: CD56 on cells (UniProt P13591); assay: FACS on H69 cells (CEA+/CD56+), dAb at 500 nM
CD56 on cells [22] = biological target: CD56 on cells (UniProt P13591); assay: FACS on H69 cells
CD56 on cells [23] = biological target: CD56 on cells (UniProt P13591); assay: FACS
CD56 on cells [24] = biological target: CD56 on cells (UniProt P13591); assay: FACS on H82 cells, dAb tested as dimer
CD56 on cells [25] = biological target: CD56 on cells (UniProt P13591); assay: FACS on H69 cells; H69 cells
CD56 on cells [26] = biological target: CD56 on cells (UniProt P13591); assay: FACS on H82 cells

Measured: binding

B1: DOM11-3 (other)
chain: DIQMTQSPSSLSASVGDRVTITCRASQNIDSRLSWYQQKPGKAPKLLIYRTSVLQSGVPSRFSGSGSGTDFTLTISSLQPEDFATYYCQQWDMFPLTFGQGTKVEVK
notes: Anti-CD38 domain antibody (dAb) monomer; also called DOM11-3A
binds: [1] | CD38 on cells [2] | CD38 on cells [3] | CD38 on cells [4] | CD38 on cells [5] | [6] | [7] | CD38 on cells [8]

B2: DOM11-3/DOM12-45 anti-CD38/anti-CD138 dual specific ligand (bispecific antibody)
chain: DIQMTQSPSSLSASVGDRVTITCRASQNIDSRLSWYQQKPGKAPKLLIYRTSVLQSGVPSRFSGSGSGTDFTLTISSLQPEDFATYYCQQWDMFPLTFGQGTKVEIKRSSGGGGSGGGGSGGGGSGGGGSGGGGSTDIQMTQSPSSLSASVGDRVTITCRASQDIGDRLRWYQQKPGKAPKLLIYHGSRLESGVPSRFSGSRSGTDFTLTISSLQPEDFATYYCQQQWFRPYTFGQGTKVEIKR
notes: In-line fusion of two dAbs, expressed in E. coli; also called DOM11-3/12-45
binds: [9] | [10] | [11] | [12] | [13] | [14] | [15]

B3: PEGylated DOM11-3/DOM12-45 (5K, 20K, 30K or 40K PEG) (bispecific antibody)
chain: B2 chain
modifications: engineered C-terminal cysteine coupled to 5K, 20K, 30K or 40K linear MAL-PEG
binds: [16] | [17] | [18] | [19] | [20]

B4: DOM11-30 (other)
chain: DIQITQSPSSLSASVGDRITITCRASQKIENDLAWYQQKPGKAPKLLIYYTSILQSGVPSRFSGSGSGTDFTLTISSLQPEDFATYYCQQRRYVPATFGQGTKVEIKR
notes: Anti-CD38 dAb monomer
binds: [1] | CD38 on cells [2] | CD38 on cells [3] | CD38 on cells [4] | CD38 on cells [5] | [6] | [7]

B5: DOM14-23 (other)
chain: DIQMTQSPSSLSASVGDRVTITCRASQDIFPFLNWYQQKPGKAPELLIYRASILHSGVPSRFSGSGSGTDFTLTISSLQPEDFATYYCQQIARSPRTFGQGTKVEIKR
notes: Anti-CD56 dAb
binds: CD56 on cells [21] | CD56 on cells [22] | CD56 on cells [23] | CD56 on cells [24]

B6: DOM14-48 (protein)
chain: DIQMTQSPSSLSASVGDRVTITCRASRLIGKHLSWYQQKPGKAPKLLIYRSSVLQSGVPSRFSGSGSGTDFTLTISSLQPEDFATYYCQQHATSPRTFGQGTKVEIKR
binds: CD56 on cells [25]

B7: DOM14-63 (other)
chain: DIQMTQSPSSLSASVGDRVTITCRASQNISRGLRWYQQKPGKAPKLLIYHASKLQSGVPSRFSGSGSGTDFTLTISSLQPEDFATYYCQQYKVFPGTFGQGTKVEIKR
notes: Anti-CD56 dAb monomer
binds: CD56 on cells [25]

B8: DOM14-68 (other)
chain: DIQMTQSPSSLSASVGDRVTITCRASQEISGELTWYQQKPGKAPKLLIYFSSILQSGVPSRFSGSGSGTDFTLTISSLQPEDFATYYCQQRKLRPYTFGQGTKVEIKR
notes: Anti-CD56 dAb monomer
binds: CD56 on cells [22] | CD56 on cells [26]

B9: DOM14-70 (other)
chain: DIQMTQSPSSLSASVGDRVTITCRASQEIGQWLNWYQQKPGKAPKLLIYWGSELQSGVPSRFSGSGSGTDFTLTISSLQPEDFATYYCQQVSRNPFTFGQGTKVEIKR
notes: Anti-CD56 dAb monomer
binds: CD56 on cells [22] | CD56 on cells [26]
